Data: publication PMC12865461
No constants are given. Whether binding was seen depends on the method and setting. Some results given as binding are weak or reduced against the parent protein; the word gives no strength.

Biological target: T1, yeast Smc2 residues 396-792 (yeast) (UniProt P38989)
T1 sequence: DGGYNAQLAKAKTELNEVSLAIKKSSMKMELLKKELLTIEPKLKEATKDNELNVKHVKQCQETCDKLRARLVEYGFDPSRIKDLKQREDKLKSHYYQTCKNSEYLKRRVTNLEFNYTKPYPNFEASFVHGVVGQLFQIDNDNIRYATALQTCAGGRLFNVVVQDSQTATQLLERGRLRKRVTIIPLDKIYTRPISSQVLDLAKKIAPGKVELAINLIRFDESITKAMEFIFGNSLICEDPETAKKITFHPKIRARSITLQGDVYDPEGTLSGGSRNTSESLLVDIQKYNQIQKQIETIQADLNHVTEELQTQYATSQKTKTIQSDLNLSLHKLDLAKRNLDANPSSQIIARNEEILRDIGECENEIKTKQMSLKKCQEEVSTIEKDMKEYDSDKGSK
Assay: co-purification (Ni affinity, anion exchange, SEC); His6-tagged Smc2 (396-792) and untagged Smc4 (555-951) co-expressed in bacteria and purified together by Ni-Sepharose 6FF, Resource Q and Superdex 200 GL 10/300

B1: yeast Smc4 residues 555-951 (domain or fragment, UniProt Q12267 555-951)
chain: EKELEPWDLQLQEKESQIQLAESELSLLEETQAKLKKNVETLEEKILAKKTHKQELQDLILDLKKKLNSLKDERSQGEKNFTSAHLKLKEMQKVLNAHRQRAMEARSSLSKAQNKSKVLTALSRLQKSGRINGFHGRLGDLGVIDDSFDVAISTACPRLDDVVVDTVECAQHCIDYLRKNKLGYARFILLDRLRQFNLQPISTPENVPRLFDLVKPKNPKFSNAFYSVLRDTLVAQNLKQANNVAYGKKRFRVVTVDGKLIDISGTMSGGGNHVAKGLMKLGTNQSDKVDDYTPEEVDKIERELSERENNFRVASDTVHEMEEELKKLRDHEPDLESQISKAEMEADSLASELTLAEQQVKEAEMAYVKAVSDKAQLNVVMKNLERLRGEYNDLQSE
For B1, which binding is on record?
Its binding is “binds”.
